The target in this experiment is T1, E3 ubiquitin-ligase Hakai (human (endogenous in HEK293T, ACHN, HT29, HCT116)) (UniProt Q75N03).
T1 sequence: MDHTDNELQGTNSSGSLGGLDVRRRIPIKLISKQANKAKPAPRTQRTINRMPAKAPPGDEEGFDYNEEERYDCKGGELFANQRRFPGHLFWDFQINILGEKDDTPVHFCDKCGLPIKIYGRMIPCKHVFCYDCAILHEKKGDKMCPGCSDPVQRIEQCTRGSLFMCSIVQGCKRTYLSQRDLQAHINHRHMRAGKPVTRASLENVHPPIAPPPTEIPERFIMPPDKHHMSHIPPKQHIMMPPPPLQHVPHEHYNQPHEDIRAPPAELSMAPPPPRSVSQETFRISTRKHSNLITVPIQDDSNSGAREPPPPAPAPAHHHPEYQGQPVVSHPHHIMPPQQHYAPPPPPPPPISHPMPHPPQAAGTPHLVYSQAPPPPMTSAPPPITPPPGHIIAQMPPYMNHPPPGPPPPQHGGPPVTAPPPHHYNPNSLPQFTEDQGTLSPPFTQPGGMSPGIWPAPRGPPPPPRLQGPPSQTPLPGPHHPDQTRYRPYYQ
The experiment is described as follows: co-IP; endogenous proteins; whole cell extracts (HEK293T, ACHN, HT29, HCT116) in 1% Triton X-100 buffer (20 mM Tris-HCl pH 7.5, 150 mM NaCl); antibody (Hakai, Hsp90 or Annexin A2) or control IgG on Protein A or Protein G PLUS agarose, 2 h at 4 °C; western blot.

No constants are given. Whether binding was seen depends on the method and setting. In cells and extracts the contact can be indirect.

Take Hsp70: the binding entry is listed as “no binding”.

(Values after paper PMC7017148.)
